# Laboratory results published in PubChem BioAssay AID2417 (National Center for Advancing Translational Sciences (NCATS), 2010).
# The campaign covered roughly 140,000 compounds. About 4,300 (3.1%) were called active. Inconclusive means that the source gave no clear call. Such entries were picked first, then a sample of the others.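 The calls were made as follows: active = readout at or below -70, meaning at least 70% loss of cells showing the perinucleolar compartment, a nuclear body marking cancer cells; inconclusive = readout between -30 and a set limit; inactive = the rest.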
# Test: High Content Assay for Compounds that inhibit the Assembly of the Perinucleolar Compartment;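 also: plate controls were DMSO wells for no effect and camptothecin positive control wells for full effect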
# Settings: PC3M PTB-GFP, PNC prevalence imaging, 16 h; at 10 µM; active compounds read low
# Procedure, shortened: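 PC3M cells stably expressing PTB-GFP, 750–1000 cells/well, treated 16 h at 37 °C with compound (23 nl of library stock), in duplicate. After paraformaldehyde fixation and Hoechst stain, imaged at 20x; PNC prevalence scored by image analysis.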
row,SMILES,"activity change (PNC), negative = inhibition"
1,Cc1cc(Cl)ccc1OCC(=O)N1CCCN(C(=O)COc2ccc(Cl)cc2C)CC1,inconclusive: -39.9%
2,Cc1cc(C(=O)COc2ncnc3sccc23)c(C)n1C1CC1,inactive: -15.6%
3,CCCCC(=O)NC(c1ccc(OC)c(OC)c1)c1c(O)ccc2ccccc12 (centres undefined),inconclusive: -35.5%
4,COc1ccc(-c2noc(-c3ccccc3-c3ccccc3)n2)cc1OC,inconclusive: -62.1%
5,Cc1cccc(-c2nnn3c2nc(NCCc2ccc(S(N)(=O)=O)cc2)c2ccccc23)c1,inconclusive: -74.6%
6,COc1ccc(-c2cn3ccccc3n2)cc1[N+](=O)[O-],inactive: -23.7%
7,O=C(NCc1ccncc1)C12CC3CC(CC(C3)C1)C2,inactive: 44.1%
8,Cc1ccnc2nc(C(=O)OCCOc3cccc(Br)c3)nn12,inactive: -8.7%
9,O=C(CSc1ncc(C(F)(F)F)cc1Cl)N1CCN(S(=O)(=O)c2ccc(Cl)cc2)CC1,inconclusive: -62.3%
10,Cc1ccc2c(c1)C=CC(C#N)N2C(=O)c1ccccc1 (centres undefined),active: -88.2%
11,N=c1nc(SCCC(=O)O)ss1,inconclusive: -32%
12,CCSc1nnc(-c2ccc(S(=O)(=O)N3CCOCC3)cc2)n1CC1CCCO1 (centres undefined),inconclusive: -58.8%
13,COC(=O)c1cc(OC)c(OC)cc1NCC(=O)Nc1ccc(OC)c(OC)c1,inconclusive: -41.3%
14,Cc1nnc(SCC(=O)Nc2ncc(Cc3ccc(F)cc3)s2)n1N,inactive: -13.2%
15,CCOCCCNC(=O)c1cc2c(-c3ccc(Cl)cc3)nn(C)c2s1,inconclusive: -38.6%
16,CC(C)(C)C(=O)Cn1c(NCCO)nc2ccccc21,inconclusive: -53.7%
17,Nc1ccc(/C=C/C(=O)c2ccco2)cc1,inconclusive: -32%
18,O=C(N/N=C/c1ccccn1)c1ccc(Br)cc1,inactive: 59.2%
19,Cc1cc(C)cc(OCC(=O)N/N=C\c2cn(C)nc2C)c1,inconclusive: -36.2%
20,CCCCCCn1c(CN2CCCCC2C)nc2c1c(=O)n(C)c(=O)n2C (centres undefined),inactive: 20.6%

# Three neighbouring entries from above:
row,SMILES,"activity change (PNC), negative = inhibition"
10,Cc1ccc2c(c1)C=CC(C#N)N2C(=O)c1ccccc1 (centres undefined),active: -88.2%
11,N=c1nc(SCCC(=O)O)ss1,inconclusive: -32%
12,CCSc1nnc(-c2ccc(S(=O)(=O)N3CCOCC3)cc2)n1CC1CCCO1 (centres undefined),inconclusive: -58.8%

# The listing continues:

row,SMILES,"activity change (PNC), negative = inhibition"
1,O=C(O)CCC(=O)Nc1cccc(C(=O)Nc2cccc(Cl)c2)c1,inconclusive: -33.7%
2,CCCc1[nH]n(-c2ccc(F)cc2)c(=O)c1C=Nc1cccc(F)c1,inconclusive: -68.5%
3,Cc1csc(NC(=O)CSc2nnc3ncccn23)n1,inconclusive: -38.4%
4,Cc1cccc(N2C(=O)CC(N3CCN(c4cccc(C(F)(F)F)c4)CC3)C2=O)c1 (centres undefined),inactive: 31.6%
5,Cc1cc(C(=O)OCC(=O)N2CC(C)CC(C)C2)c(C)o1 (centres undefined),inactive: 23.4%
6,O=C(NCc1ccccn1)c1coc(=O)c(Br)c1,active: -87%
7,CCc1ccc(NC(=O)C/C(C)=N/NC(=O)OCc2ccc(OC)cc2)cc1,inconclusive: -43.9%
8,CCCCOC(=O)n1c(=S)oc2cc(Cl)ccc21,inactive: 69%
9,Cn1ncc(Br)c1C(=O)Nc1c(F)c(F)cc(F)c1F,inconclusive: -34.8%
10,Cc1cc(C)cc(C(=O)NCC(=O)OCc2cc([N+](=O)[O-])cc3c2OCOC3)c1,inconclusive: -46.2%
11,Clc1ccc(SCc2nc3ccccc3[nH]2)cc1,inactive: 10.8%
12,CC(=O)Nc1ccc(NC(=O)c2ccccc2Sc2ccc([N+](=O)[O-])cc2Cl)cc1,active: -80.3%
13,CCc1cccc(C)c1NC(=S)NCc1cccn1C,inactive: 143%
14,COC(=O)c1cc(OC)c(OC)cc1NC(=O)Nc1ccc(OC)cc1OC,inactive: 28%
15,O=C(Oc1ccc(Cl)c2cccnc12)c1ccco1,inactive: -13.5%
16,CCc1ccc(NC(=O)C2CCCCC2C(=O)O)cc1 (centres undefined),inconclusive: -32.9%
17,O=C(NC1CCCC1)C(c1ccccc1)N(Cc1ccc2c(c1)OCO2)C(=O)Cc1cccs1 (centres undefined),inconclusive: -36%
18,CCCCNC(=O)c1cc2c(=O)n3cccc(C)c3nc2n(Cc2ccccc2)c1=N,inactive: 1.34%
19,COC(=O)CC(=O)CSc1nc2c(cc1C#N)CCC2,inconclusive: -36.4%
20,CCN(CC)c1ccc(S(=O)(=O)N2CCOCC2)cc1NC(=O)CSc1cccc[n+]1[O-],inactive: 11.8%

row,SMILES,"activity change (PNC), negative = inhibition"
1,Cc1ccc(N(C(=O)c2nsc(Cl)c2Cl)C(C(=O)NC2CCCC2)c2ccc(O)cc2)cc1C (centres undefined),inconclusive: -46.9%
2,CCOC(=O)N1[C@@H]2C=C(C)[C@@H]2[C@@H]2[C@@H](C)C(=O)N21,inactive: 9.43%
3,Cc1occc1-c1nnc(SCC(=O)N2CCN(c3ccc(F)cc3)CC2)n1C,inconclusive: -36.5%
4,NNC1=N[C@H]2CS(=O)(=O)C[C@H]2S1,inactive: -12.6%
5,N#Cc1nc(COc2ccccc2Cl)oc1NCc1ccc(F)cc1,inconclusive: -42.5%
6,CCCCNC(=O)OC1CCS(=O)(=O)C1 (centres undefined),inactive: 23.8%
7,CN(C)c1ccc(NC(=O)CN2C(=O)CC(c3ccccc3)=Nc3ccccc32)cc1,inconclusive: -30.8%
8,CCOCCc1nnc(NC(=O)c2cc(OC)c(OC)c(OC)c2)s1,inconclusive: -34.3%
9,Cc1onc(-c2c(Cl)cccc2Cl)c1C(=O)N/N=C(\N)COc1ccc(Cl)cc1,inactive: 9%
10,CC(=O)Nc1ccc(S(=O)(=O)N2C3CCCC2CC(NC(=O)C2CCCCC2)C3)cc1 (centres undefined),inconclusive: -62%
11,CCOC(=O)c1ccccc1N/C=C1\CCCC1=O,inconclusive: -42.8%
12,O=C(c1cccc(F)c1F)N1CCCC1,inactive: 104%
13,Cc1occc1-c1nnc(SCC(=O)c2ccc(F)cc2)n1Cc1ccco1,inactive: 36.6%
14,CN(N)c1nc(-c2ccccc2)nnc1C(F)(F)F,inactive: -3.53%
15,CC(=O)N/C(=C/c1ccc2c(c1)OCO2)C(=O)NCCCO,inconclusive: -53.7%
16,Cc1ccc(-c2nn(CCC(=O)O)cc2CCC(=O)O)cc1,inconclusive: -33.1%
17,Cc1ccc2c(c1)nnn2C1CCN(C(=O)C23CC4CC(CC(C4)C2)C3)CC1,inconclusive: -30%
18,COc1ccc(OC)c(C(=O)COC(=O)C2CC3CCCC(C2)C3=O)c1 (centres undefined),inconclusive: -33.3%
19,Cc1ccc(Nc2cc(C)nc(N3CCOCC3)n2)cc1,inconclusive: -39.7%
